# PubChem BioAssay AID2685 (National Center for Advancing Translational Sciences (NCATS), 2010)
# Several values for one entry are separate records, joined by “and”; a condition that tells them apart may be missing. Identical values can stand only once. The list shows a part of the results. Further columns of the screen follow, without active or inactive calls. Most of these compounds were active or inconclusive in the main read-out, so they are no random draw. The note in brackets gives the kind of curve behind each potency; many fits are weak.
# Assay: qHTS Assay for Lipid Storage Modulators in Drosophila S3 Cells;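 for cell number change: cells counted by Cell Tracker Red CMTPX staining in the red channel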
# Settings: BODIPY lipid droplet fluorescence, 18-24 h; for cell number change: measured here: cell count max response, cells fed with added oleic acid
# In short: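 Drosophila S3 cells got compounds at several concentrations plus oleic acid (400 uM solution). Laser-scanning cytometry with 488 nm excitation read lipid droplets at 500-530 nm and cells at 575-640 nm. Percent activity was relative to 20 uM Triacsin C.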
# [1] = measured here: lipid fluorescence (Fed channel) AC50, cells fed with added oleic acid
# [2] = measured here: cell number channel AC50, cells fed with added oleic acid
SMILES,cell number change,AC50 [1],AC50 [2]
COc1cc(NC(=O)c2cccc([N+](=O)[O-])c2)ccc1NC(=O)c1cc2ccccc2o1,-9.37%,"0.00411 µM [falling, full curve, poor fit]",
CC1(c2ccc(Cl)cc2)NC(=O)N(CC(=O)N2CCN(S(=O)(=O)c3ccccc3)CC2)C1=O (stereo not drawn),,,"0.092 µM [falling, full curve, poor fit]"
O=C(COC(=O)CCSc1ccc(Cl)cc1)NCc1ccccc1Cl,-7.73%,"0.00411 µM [falling, full curve, poor fit]",
Cc1ccc(NC(=O)C2CC(O)CN2C(=O)OCc2ccccc2)c(C)c1 (stereo not drawn),31%,,"29.1 µM [rising, single point]"
O=C(NCC1CCCO1)c1cc(C(=O)C2CC2)c[nH]1 (stereo not drawn),15%,"2.59 µM [falling, single point]",
O=C(Cc1ccccc1)Nc1ccc(Br)c(Cl)c1,-31.3%,"6.51 µM [rising, single point]","32.6 µM [falling, single point]"
COCCn1c(-c2cccs2)csc1=Nc1cccnc1,,"3.66 µM [rising, single point]","6.51 µM [rising, single point]"
O=C(Nc1ncccn1)c1cccs1,9.71%,"6.51 µM [falling, single point]",
O=C(NCCCNC(=O)c1ccccn1)c1ccc(Br)cc1,,,"2.31 µM [falling, partial curve, poor fit]"
COc1cccc(NC(=O)Nc2cccn(Cc3ccc(C)cc3)c2=O)c1,-34.4%,,"16.4 µM [falling, single point]"
COc1ccc(CCNS(=O)(=O)c2cc3c4c(c2)CCN4C(=O)CC3)cc1OC,-99.2%,"3.66 µM [rising, partial curve]","18.4 µM [falling, single point]"
CCC(C)(C)NC(=O)CN(Cc1ccccc1)C(=O)CCC(=O)Nc1nccs1,,"29.1 µM [rising, single point]",
Cc1ccc(Cn2c(=O)c3c(nc4n3CCCN4Cc3ccccc3)n(C)c2=O)cc1,-3.83%,,
CCCc1cc(=O)oc2cc(OCC(=O)NCc3ccccn3)ccc12,-51%,"29.1 µM [falling, single point]","0.0058 µM [falling, full curve, poor fit]"
CCCc1cc(=O)[nH]c(SCCOc2ccc(OCC)cc2)n1,-84.5%,,"23.1 µM [falling, single point]"
COc1cc(C(=O)NCC(=O)NCCSc2ccc(Br)cc2)cc(OC)c1OC,-44%,"25.9 µM [falling, partial curve, poor fit]","20.6 µM [falling, partial curve, poor fit]"
Cc1oc2c(C)c3oc(=O)c(CCC(=O)N4C[C@H]5C[C@@H](C4)c4cccc(=O)n4C5)c(C)c3cc2c1C,15.9%,,
COc1ccc(C(=O)NCc2ccc(S(N)(=O)=O)cc2)cc1[N+](=O)[O-],42.1%,,
CC1(NC(=O)C2CCN(C(=O)Nc3ccccc3)CC2)CCS(=O)(=O)C1 (stereo not drawn),7.67%,,
COc1cc(OC)cc(C(=O)N[C@H](C(=O)Nc2ccc3c(c2)OCO3)C(C)C)c1,,"0.146 µM [rising, single point]",

SMILES,cell number change,AC50 [1],AC50 [2]
CC(=O)c1c(C)[nH]c(C(=O)N2CCCC(C)C2)c1C (stereo not drawn),-4.26%,,
COC(=O)CSc1cc([N+](=O)[O-])cc2c1c(C1OCCO1)nn2-c1ccccc1,13.5%,"2.06 µM [rising, single point]",
Cc1cccc(OCCC(=O)OC(C)C(=O)Nc2ccc(Cl)cn2)c1 (stereo not drawn),-5.87%,"3.66 µM [rising, full curve]",
COc1ccc(-c2cc(C(=O)OCC(=O)NC3CC3)c3ccccc3n2)cc1,3.53%,,
O=[N+]([O-])c1ccc(/C=N/Nc2nc(NCc3ccccc3)nc(N3CCOCC3)n2)cc1,,"2.06 µM [rising, partial curve]","0.92 µM [rising, full curve]"
O=C(O)C1CC=CCC1C(=O)NCCCCc1ccccc1 (stereo not drawn),8.22%,"6.31 µM [falling, single point]",
COc1ccc([C@H]2CC(=O)C=C(C#CC(C)(C)C)C2)cc1,-25.8%,"13 µM [rising, partial curve]",
CC(C)=C1C2C=CC1C(C(=O)Nc1cccc(C)c1)C2C(=O)O (stereo not drawn),-3.02%,"0.00517 µM [falling, full curve, poor fit]",
CC(C)C(NS(=O)(=O)c1cccc2nsnc12)C(=O)N1CCc2ccccc2C1 (stereo not drawn),-19.2%,"14.6 µM [falling, partial curve, poor fit]",
COc1ccc(OCCn2cnc3ccccc32)cc1,6.35%,"20.6 µM [falling, single point]",
COc1cccc(C(=O)Nc2ccccc2N2CCCC2)c1,210%,"3.26 µM [rising, single point]","18.4 µM [rising, single point]"
CC1CCC(C(C)C)C(OC(=O)Cn2c(-c3ccccc3)[n+](C)c3ccccc32)C1 (stereo not drawn),-53.5% and -75.7%,"4.61 µM [falling, full curve] and 5.8 µM [falling, full curve]","5.8 µM [falling, full curve]"
COc1cccc(NC(=O)c2cc([N+](=O)[O-])ccc2NC(=O)CNCC2CCCO2)c1 (stereo not drawn),44.4%,,"9.2 µM [rising, partial curve, poor fit]"
CCCc1nc2oc3c(NCC4CCCO4)ncnc3c2c2c1COC(C)(C)C2 (stereo not drawn),-53.7%,"18.4 µM [falling, single point]","1.03 µM [falling, full curve]"
c1ccc(N(c2ccccc2)c2nc(N3CCOCC3)nc(N3CCOCC3)n2)cc1,60.3%,"0.092 µM [falling, full curve, poor fit]","13 µM [rising, partial curve]"
Cc1ccc(N2CCN(/N=C/c3ccncc3)CC2)cc1,-34%,,"16.4 µM [falling, single point]"
Cc1c(NC(=O)C(C)N2CC(C)OC(C)C2)c(=O)n(-c2ccccc2)n1C (stereo not drawn),,"5.17 µM [falling, full curve]",
CC(=O)Nc1ccc(C(=O)COC(=O)c2ccco2)c(F)c1,-14.5%,"29.1 µM [falling, single point]",
Cc1ccccc1-n1nc(-c2ccc(N)cc2)cc1N,,"3.66 µM [rising, partial curve]","2.91 µM [rising, single point]"
c1ccc2c(NC3C4CC5CC(C4)CC3C5)nc(N3CCOCC3)nc2c1 (stereo not drawn),-27.4%,"0.164 µM [falling, full curve, poor fit]","1.84 µM [falling, partial curve, poor fit]"

SMILES,cell number change,AC50 [1],AC50 [2]
CC1=C(C(=O)OC(C)C)C(c2ccccc2)NC(=S)N1C (stereo not drawn),-2.38%,"5.17 µM [rising, single point]",
O=C(NC(Cc1c[nH]c2ccccc12)C(=O)O)c1cccs1 (stereo not drawn),,"6.51 µM [falling, single point]","0.259 µM [falling, partial curve]"
COC(=O)c1c(NC(C)=O)sc2c1CCCCC2,2.83%,"29.1 µM [rising, single point]",
COCCn1c(C)cc(C2=NNC(=Nc3ccccc3)SC2)c1C,13.5%,"32.6 µM [rising, single point]",
CC(SCC(=O)NC(C)C1CC2CCC1C2)C(=O)O (stereo not drawn),-66.7%,,"23.1 µM [falling, single point]"
O=C(CSc1nc2c(c(=O)[nH]1)CCCC2)Nc1ccc(Cl)cc1F,-8.19%,"29.1 µM [falling, single point]",
Cc1ccc(-c2ccc(/C=C(\C#N)C(N)=S)n2C)cc1,-2.62%,"0.00461 µM [falling, full curve, poor fit]",
Cc1cc(/C=N/O)c(C)n1-c1ccc(Br)cc1,31.8%,"10.3 µM [rising, partial curve]","5.8 µM [rising, partial curve]"
CCOc1ccc(-c2nnc(SCC(=O)N3CCNC3=O)o2)cc1,-15.3%,"6.51 µM [falling, partial curve, poor fit]",
O=C1N/C(=N\S(=O)(=O)c2ccccc2)S/C1=C\c1cc([N+](=O)[O-])ccc1O,21.7%,,
O=C(Nc1cccc(NC(=S)NC(=O)c2cccs2)c1)c1ccccc1,-10.4%,"2.31 µM [rising, partial curve]",
O=C(Cn1sc2ccccc2c1=O)NC12CC3CC(CC(C3)C1)C2,-78.9%,,"29.1 µM [falling, single point]"
COCCCNC(=O)c1cc2c(s1)CS(=O)(=O)C2,1.15%,,
N#Cc1ccccc1OCCN1C(=O)c2ccccc2C1=O,-5.83%,"29.1 µM [rising, single point]",
CC(C)(C)Nc1ncnc2c1cnn2-c1ccccc1,,"0.366 µM [falling, full curve]",
CCc1ccccc1NC(=O)CNC(=O)CNC(=O)c1cccs1,-9.12%,,
O=C(COC(=O)COc1ccc(Br)cc1)Nc1cccnc1Cl,-12.3%,"0.116 µM [falling, full curve, poor fit]",
CCC(CC)COC(=O)C1=C(C)NC(=O)NC1c1ccccc1Br (stereo not drawn),-17.5%,"29.1 µM [falling, single point]",
CC(C)CCOCc1nc2sc3c(c2c(=O)[nH]1)CCC(C)C3 (stereo not drawn),25.5%,"6.51 µM [rising, single point]",
